# Experimental data reported in PMC9112550, “Optimization of the antimicrobial peptide Bac7 by deep mutational scanning” (BMC Biology, 2022).
# Tested on: E. coli TOP10
# Test: Deep mutational scanning, epPCR (randomly mutagenized) Bac7_1-23 library, intracellular self-screening with NGS
# Assay type: cell-based
# Conditions: epPCR library, 601,551 variants; rank 1 = most active; qualitative measure
sequence,measurement,value
RKLRPRPPRLPRPRPRPLPFLRP [epPCR library peptide ID 94428],Rank by antimicrobial activity,2
